Our source for the AC50 values is PubChem BioAssay AID445 (National Center for Advancing Translational Sciences (NCATS), 2006).

The list shows a part of the results. Further columns of the screen follow, without active or inactive calls. Most of these compounds were active or inconclusive in the main read-out, so they are no random draw. The note in brackets gives the kind of curve behind each potency; many fits are weak.

The experiment is described as follows: IkB Signaling. To be noted: ABC-DLBCL IkBa-CBG/CBR dual luciferase ratio (green luciferase fused to IkBa over red control in OCI-Ly3 lymphoma cells), 4 h; measured here: control luc red channel unless noted. The gist of the method: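 In this assay, an IκBα–CBG68 fusion accumulates when IKK-driven degradation is blocked; native CBR normalizes for cell number. OCI-Ly3 cells were treated 4 h with compound and doxycycline, then green and red light read after Chroma-Glo addition.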
On to `CC(=O)c1cccc(NC(=O)c2c(C)nn(-c3ccc(F)cc3)c2-n2cccc2)c1`, for which the concentration at half-maximal activity (AC50) is 39.8 µM [falling, single point].
To `CCCCCN1C(C(=O)c2ccccc2)=C(NC(C)=O)c2ccccc2S1(=O)=O` belongs 20 µM [falling, partial curve]; to `O=C(CSc1ncc2c(n1)-c1cc(Cl)ccc1N(Cc1ccccc1F)S2(=O)=O)Nc1cccc(C(F)(F)F)c1`, 12.6 µM [falling, partial curve].
Turning to `O=C(C1CC1)N1CCN(c2nc3c(F)cc(F)cc3s2)CC1`, the AC50 is 5.01 µM [rising, partial curve].
Under `COc1cccc2c1[C@H](CO)N1[C@H](C#N)[C@@H]3C[C@H](C(=O)O)[C@@H]([C@@H]1C2)N3C` stands 0.316 µM [falling, full curve]; under `Cc1cc(Cl)ccc1OCC(=O)N(Cc1ccc(N(C)C)cc1)CC1CCCO1` (stereo not drawn), 15.8 µM [falling, partial curve]; under `O=C(O)c1ccc2c(c1)N(Cc1ccc(F)cc1Cl)C(=O)c1ccccc1S2`, 25.1 µM [falling, partial curve].
With `O=C(CSc1nnc(NC(=O)c2ccco2)s1)NC1CCCCC1`, the AC50 was 0.631 µM [falling, full curve].
To `COc1ccc(NC(=O)CCS(=O)(=O)c2nc(-c3ccc4c(c3)OCO4)cc(C(F)(F)F)n2)c(OC)c1` belongs 5.01 µM [falling, partial curve].
With `Cc1ccc(-n2c(C)nc3oc4ccccc4c(=O)c3c2=O)cc1`, the half-maximal activity concentration (AC50) was 0.02 µM [falling, full curve].
Under `CCOC(=O)c1ccc(NC(=O)CSc2nc(SC)ns2)cc1` stands 25.1 µM [falling, partial curve]; under `O=C(c1cc(-c2ccccc2)on1)N1CCN(C(=O)c2ccco2)CC1`, 20 µM [falling, partial curve]; under `CCN(C(=O)c1cnc(N2CCOCC2)c2ccccc12)c1cc(C)ccc1C`, 0.158 µM [falling, full curve, poor fit].
Under `O=C(c1ccc2c(c1)N(Cc1ccccc1)C(=O)c1ccccc1S2=O)N1CCC(Cc2ccccc2)CC1` (stereo not drawn) stands 1 µM [falling, partial curve].
As to `CCCOc1ccc(C2=NC(c3ccc(F)cc3)=Nc3ccc(OC)cc3N2)cc1`, the AC50 is 39.8 µM [falling, single point].
In the case of `O=C(Oc1ccnc2cc(Cl)ccc12)N1CCCCCC1`, the AC50 was 12.6 µM [falling, partial curve].
In the case of `COc1ccccc1CNC(=O)c1ccc2c(c1)CCN2S(=O)(=O)c1ccc(Cl)cc1`, the AC50 is 10 µM [falling, partial curve].
Under `Clc1ccc(Nc2ncnc3c2cnn3-c2ccccc2)cc1` stands 31.6 µM [falling, single point]; under `COc1ccc2nc(N(Cc3cccnc3)C(=O)COc3ccccc3)sc2c1`, 3.16 µM [rising, partial curve]; under `Cc1cccc(S(=O)Cc2ccc(C(=O)NC3CCCCCC3)o2)c1` (stereo not drawn), 6.31 µM [falling, partial curve].
To `CCn1c(C(=O)N2CCCC(C(=O)NCCCc3ccccc3)C2)cc2sccc21` (stereo not drawn) belongs 12.6 µM [falling, partial curve]; to `Cc1c(-c2ccccc2)n(-c2ccccc2O)c2nc3c(c(=O)n(C)c(=O)n3C)n12`, 20 µM [falling, partial curve].
To `Clc1ccc(Nc2c(-c3ccccc3Cl)nc3ccc(Cl)cn23)cc1` belongs 6.31 µM [falling, partial curve]; to `Cc1ccc(C(=O)Nc2cccc(C(=O)OCc3cc(=O)n4nc(C5CC5)sc4n3)c2)cc1`, 0.158 µM [falling, full curve]; to `COCC(C)Nc1ncnc2c1cnn2-c1ccc(C)c(C)c1` (stereo not drawn), 25.1 µM [falling, single point].
`CCOc1ccc(N2CC(NC(=O)C3CC3)CC2=O)cc1` (stereo not drawn): the half-maximal activity concentration (AC50) was 7.94 µM [falling, single point].
With `Cc1ccnc(NC(=O)CSc2cc(=O)n(C)c3ccccc23)c1`, the concentration at half-maximal activity (AC50) was 3.16 µM [falling, full curve].
For the compound `CCCCN(CC)CCCNC(=O)Cn1ncc2c3ccccc3n(Cc3ccc(F)cc3)c2c1=O`, the half-maximal activity concentration (AC50) was 12.6 µM [falling, single point].
As to `O=C(Cn1nnc2c(cnn2-c2ccc(F)cc2)c1=O)OC1CCCCC1`, the AC50 was 31.6 µM [falling, partial curve].
As to `Cc1ccc(CN2CCCn3nc(C(=O)NCCc4cccc(C)c4)cc3C2=O)cc1`, the concentration at half-maximal activity (AC50) is 7.94 µM [falling, partial curve].
To `Cc1nn(C)c2c1c(-c1ccccc1)cc(=O)n2CC(=O)NC(C)C` belongs 6.31 µM [rising, single point]; to `COc1ccc(CCNCc2ccc3c(c2)n(C)c(=O)n3C)cc1OC`, 15.8 µM [rising, partial curve].
In the case of `CCc1ccccc1NC(=O)Cn1c(SCc2ccc(F)cc2)nc2ccncc21`, the half-maximal activity concentration (AC50) was 12.6 µM [falling, partial curve].
Under `O=[N+]([O-])c1cc(-c2nc(-c3ccccc3)no2)ccc1N1CCOCC1` stands 15.8 µM [falling, partial curve]; under `COc1ccc(-c2nc(CCNC(=O)c3ccc(Br)o3)cs2)cc1`, 25.1 µM [falling, single point]; under `COC(=O)c1[nH]c2ccccc2c1NC(=O)CN1CCN(c2cccc(OC)c2)C(C)C1` (stereo not drawn), 15.8 µM [falling, partial curve].
`COc1ccc(-c2nc(CNS(=O)(=O)c3cccc(F)c3)cs2)cc1`: the concentration at half-maximal activity (AC50) was 20 µM [falling, partial curve].
As for `O=c1oc2ccccc2cc1-c1nc2ccccc2o1`, the AC50 was 10 µM [falling, partial curve].
To `Cc1ccc(Nc2sc(C(=O)c3ccccc3)c(N)c2C(N)=O)cc1` belongs 10 µM [rising, partial curve, poor fit]; to `O=C(Nc1ccc2c(c1)OCCO2)c1c(F)c(F)c(F)c(F)c1F`, 3.16 µM [falling, partial curve].
On to `CCc1nn(CC(=O)Nc2ccc(NC(C)=O)cc2)c(=O)c2cc3sccc3n12`, for which the AC50 is 3.98 µM [rising, full curve].
In the case of `O=C(Cn1cnc2onc(-c3ccc(Cl)cc3)c2c1=O)Nc1ccc(F)cc1`, the AC50 is 3.16 µM [falling, partial curve].
Regarding `O=C(Oc1ccc(-c2ccccc2)cc1)N1CCOCC1`, the AC50 is 20 µM [falling, single point].
To `CC(C)n1c(NCc2c[nH]c3ccccc23)nc2ccccc21` belongs 15.8 µM [falling, partial curve]; to `CCOC(=O)c1ccc(N2C(=O)c3n[nH]c(-c4ccco4)c3C2c2cccc(O)c2)cc1` (stereo not drawn), 15.8 µM [falling, partial curve].
Consider `Cc1ccccc1CCNC(=O)c1ccc2c(c1)nc1n2CCCCC1`, for which the concentration at half-maximal activity (AC50) was 0.0126 µM [falling, full curve, poor fit].
Consider `Cc1ccc(-c2nc3ccccc3o2)cc1NC(=O)Cc1ccc(Cl)cc1`, for which the half-maximal activity concentration (AC50) is 25.1 µM [falling, partial curve, poor fit].
For the compound `Cc1cccc(-c2nc(CN3CCCC(C(=O)NCCc4ccc(Cl)cc4)C3)c(C)o2)c1` (stereo not drawn), the AC50 was 25.1 µM [falling, partial curve].
Under `COC(=O)c1ccccc1NC(=O)CSc1nc(C)c(Cl)c(C)c1C#N` stands 12.6 µM [falling, partial curve].
For the compound `O=[N+]([O-])c1cccc(/C=N\Nc2ccc3ccccc3n2)c1O`, the concentration at half-maximal activity (AC50) was 0.0126 µM [falling, full curve].
To `CCOC(=O)c1cccc(NC(=O)c2cnc3sc(N4CCOCC4)nn3c2=O)c1` belongs 3.98 µM [falling, partial curve].
For the compound `O=C(Nc1cccc(F)c1)N1CC=C(n2c(=O)[nH]c3ccccc32)CC1`, the AC50 was 12.6 µM [falling, partial curve].
Regarding `O=C(NCc1ccccc1)C(=O)Nc1c2c(nn1-c1ccccc1)CSC2`, the AC50 was 39.8 µM [falling, single point].
For the compound `Cc1ccc(C(c2c(O)cc(C)n(Cc3ccco3)c2=O)N2CCC(C)CC2)cc1` (stereo not drawn), the AC50 is 1 µM [falling, partial curve].
With `O=C(Nc1cc2c(cc1C(=O)c1ccccc1Br)OCCO2)c1cccc(Cl)c1`, the concentration at half-maximal activity (AC50) is 31.6 µM [falling, partial curve, poor fit].
Under `COc1ccc(N2C(=O)CSC23C(=O)N(Cc2cccc(F)c2)c2ccccc23)cc1Cl` (stereo not drawn) stands 15.8 µM [falling, partial curve].
For `CC1(C)Cc2c(C#N)c(N)sc(=S)c2CS1`, the concentration at half-maximal activity (AC50) is 39.8 µM [rising, single point] [measured here: IkB-luc green channel].
Under `Cc1nc(-n2nc(C)c(CCC(C)C)c2C)sc1C(=O)Nc1ccc(Cl)cc1` stands 1 µM [falling, full curve, poor fit].
To `CCC(C)NC(=O)c1sc2nc(C)c(C(=O)Nc3ccc(C)cc3C)c(-c3ccc(NC(C)=O)cc3)c2c1N` (stereo not drawn) belongs 31.6 µM [falling, partial curve]; to `Cc1ccc2nc(NC(=O)CSc3nccn3Cc3ccc(F)cc3)sc2c1`, 39.8 µM [falling, single point]; to `O=C(O)c1ccc(Cn2c(SCc3ccc(F)cc3)nc3ccncc32)cc1`, 12.6 µM [falling, partial curve].
As to `Cc1cc(NC(=O)CS(=O)(=O)c2cn(Cc3cccc(F)c3)c3ccccc23)no1`, the AC50 was 10 µM [falling, partial curve].
Take `COc1ccc(OC)c(S(=O)(=O)NCC(c2cccs2)S(=O)(=O)c2ccc(F)cc2)c1` (stereo not drawn): the AC50 is 25.1 µM [falling, partial curve].

As usually defined, the AC50 is the concentration at which the activity in the assay is half-maximal.
